Experimental data from PMC7032568.
Results are given in words; binding and its absence hold for the method and conditions named. In cells and extracts the contact can be indirect. Some results given as binding are weak or reduced against the parent protein; the word gives no strength. Where a sequence is shown, tags or fusion partners need not be part of it.

Amino acid sequences for entries named in this document (tags omitted). A change or cut given only in a name is not applied to a line headed by its entry.
UniProt P28340: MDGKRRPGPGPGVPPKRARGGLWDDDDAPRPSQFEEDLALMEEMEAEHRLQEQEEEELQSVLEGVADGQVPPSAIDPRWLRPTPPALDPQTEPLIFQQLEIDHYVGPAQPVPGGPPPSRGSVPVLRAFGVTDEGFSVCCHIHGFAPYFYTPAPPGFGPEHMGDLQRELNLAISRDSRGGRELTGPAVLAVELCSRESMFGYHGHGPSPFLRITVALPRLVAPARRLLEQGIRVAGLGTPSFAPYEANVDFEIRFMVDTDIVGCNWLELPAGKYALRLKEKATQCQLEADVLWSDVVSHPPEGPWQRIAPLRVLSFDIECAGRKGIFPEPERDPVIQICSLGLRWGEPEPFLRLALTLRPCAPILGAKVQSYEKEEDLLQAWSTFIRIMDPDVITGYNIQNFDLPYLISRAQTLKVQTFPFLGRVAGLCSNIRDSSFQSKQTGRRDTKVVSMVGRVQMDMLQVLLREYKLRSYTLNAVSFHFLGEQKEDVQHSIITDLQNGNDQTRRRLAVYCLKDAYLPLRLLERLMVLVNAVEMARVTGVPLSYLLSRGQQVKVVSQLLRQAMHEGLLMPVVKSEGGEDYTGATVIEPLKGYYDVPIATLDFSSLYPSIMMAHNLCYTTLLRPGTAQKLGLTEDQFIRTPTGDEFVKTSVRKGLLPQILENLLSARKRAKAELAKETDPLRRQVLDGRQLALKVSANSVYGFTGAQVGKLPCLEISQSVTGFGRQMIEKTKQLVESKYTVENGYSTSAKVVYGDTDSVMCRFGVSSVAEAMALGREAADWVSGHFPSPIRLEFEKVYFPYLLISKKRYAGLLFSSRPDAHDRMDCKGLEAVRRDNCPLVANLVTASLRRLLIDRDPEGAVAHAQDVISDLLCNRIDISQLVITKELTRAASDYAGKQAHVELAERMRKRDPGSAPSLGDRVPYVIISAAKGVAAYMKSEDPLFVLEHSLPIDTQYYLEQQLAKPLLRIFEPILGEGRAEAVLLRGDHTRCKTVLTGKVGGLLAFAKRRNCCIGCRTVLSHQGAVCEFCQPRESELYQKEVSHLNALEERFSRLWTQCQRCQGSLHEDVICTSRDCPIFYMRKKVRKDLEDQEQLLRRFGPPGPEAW

T1: Flag-tagged DDX11 (wild type) (human) (UniProt Q96FC9)
T1 sequence: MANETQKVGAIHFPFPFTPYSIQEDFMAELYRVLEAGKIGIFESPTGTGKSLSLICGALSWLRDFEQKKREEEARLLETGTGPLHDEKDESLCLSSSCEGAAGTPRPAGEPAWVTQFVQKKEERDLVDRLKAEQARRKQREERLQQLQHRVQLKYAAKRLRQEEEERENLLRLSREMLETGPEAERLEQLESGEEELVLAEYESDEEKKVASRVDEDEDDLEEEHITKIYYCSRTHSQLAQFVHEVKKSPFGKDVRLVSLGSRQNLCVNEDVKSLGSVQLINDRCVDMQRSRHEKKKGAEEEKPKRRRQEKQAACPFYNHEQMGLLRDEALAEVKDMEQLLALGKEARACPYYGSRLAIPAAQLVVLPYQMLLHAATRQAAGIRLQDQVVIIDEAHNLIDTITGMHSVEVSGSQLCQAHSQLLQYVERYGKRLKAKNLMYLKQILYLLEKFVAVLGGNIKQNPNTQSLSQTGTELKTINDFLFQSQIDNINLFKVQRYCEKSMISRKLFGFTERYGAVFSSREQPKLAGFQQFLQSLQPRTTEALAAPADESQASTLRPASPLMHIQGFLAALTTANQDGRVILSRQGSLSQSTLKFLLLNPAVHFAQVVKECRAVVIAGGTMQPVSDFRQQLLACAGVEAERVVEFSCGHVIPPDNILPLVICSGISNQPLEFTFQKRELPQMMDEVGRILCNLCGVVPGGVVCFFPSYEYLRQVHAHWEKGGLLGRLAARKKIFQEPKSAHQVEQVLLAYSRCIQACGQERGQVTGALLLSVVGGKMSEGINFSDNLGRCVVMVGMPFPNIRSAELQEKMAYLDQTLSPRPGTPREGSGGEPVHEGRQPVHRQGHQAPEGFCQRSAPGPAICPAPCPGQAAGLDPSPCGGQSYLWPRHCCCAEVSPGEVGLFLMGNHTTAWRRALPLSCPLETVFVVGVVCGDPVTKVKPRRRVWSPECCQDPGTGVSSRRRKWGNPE

T2: Flag-tagged WDHD1 (human) (UniProt O75717)
T2 sequence: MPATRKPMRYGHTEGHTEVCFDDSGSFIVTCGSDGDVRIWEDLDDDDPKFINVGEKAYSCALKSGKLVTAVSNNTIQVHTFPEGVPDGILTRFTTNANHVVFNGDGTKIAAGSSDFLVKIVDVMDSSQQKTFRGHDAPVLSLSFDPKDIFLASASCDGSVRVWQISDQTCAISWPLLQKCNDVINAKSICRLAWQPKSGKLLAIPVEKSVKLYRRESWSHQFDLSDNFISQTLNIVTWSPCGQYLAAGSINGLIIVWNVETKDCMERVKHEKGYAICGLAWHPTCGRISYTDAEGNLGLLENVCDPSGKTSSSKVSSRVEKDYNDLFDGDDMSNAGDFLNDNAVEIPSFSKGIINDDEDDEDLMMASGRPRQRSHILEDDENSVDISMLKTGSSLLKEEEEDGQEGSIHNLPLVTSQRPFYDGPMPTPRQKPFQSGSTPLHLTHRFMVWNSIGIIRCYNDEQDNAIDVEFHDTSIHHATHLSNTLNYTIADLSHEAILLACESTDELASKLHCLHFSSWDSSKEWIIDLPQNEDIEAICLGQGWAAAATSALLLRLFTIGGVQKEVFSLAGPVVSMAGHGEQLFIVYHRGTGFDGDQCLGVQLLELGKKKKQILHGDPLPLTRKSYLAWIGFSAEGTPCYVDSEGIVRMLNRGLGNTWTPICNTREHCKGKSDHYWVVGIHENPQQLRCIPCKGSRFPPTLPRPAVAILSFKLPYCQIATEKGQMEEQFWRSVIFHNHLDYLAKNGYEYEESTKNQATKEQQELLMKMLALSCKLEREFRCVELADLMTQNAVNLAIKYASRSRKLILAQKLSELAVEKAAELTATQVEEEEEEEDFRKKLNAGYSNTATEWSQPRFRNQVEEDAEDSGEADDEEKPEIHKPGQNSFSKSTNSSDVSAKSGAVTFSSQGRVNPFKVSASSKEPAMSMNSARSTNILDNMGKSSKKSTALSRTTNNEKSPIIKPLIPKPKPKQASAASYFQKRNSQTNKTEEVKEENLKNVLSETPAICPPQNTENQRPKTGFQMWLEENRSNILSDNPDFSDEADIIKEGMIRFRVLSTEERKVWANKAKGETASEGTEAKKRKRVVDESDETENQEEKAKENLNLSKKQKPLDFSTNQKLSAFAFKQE

B1: WDHD1 (endogenous) (protein, UniProt O75717 1-1129)
chain: MPATRKPMRYGHTEGHTEVCFDDSGSFIVTCGSDGDVRIWEDLDDDDPKFINVGEKAYSCALKSGKLVTAVSNNTIQVHTFPEGVPDGILTRFTTNANHVVFNGDGTKIAAGSSDFLVKIVDVMDSSQQKTFRGHDAPVLSLSFDPKDIFLASASCDGSVRVWQISDQTCAISWPLLQKCNDVINAKSICRLAWQPKSGKLLAIPVEKSVKLYRRESWSHQFDLSDNFISQTLNIVTWSPCGQYLAAGSINGLIIVWNVETKDCMERVKHEKGYAICGLAWHPTCGRISYTDAEGNLGLLENVCDPSGKTSSSKVSSRVEKDYNDLFDGDDMSNAGDFLNDNAVEIPSFSKGIINDDEDDEDLMMASGRPRQRSHILEDDENSVDISMLKTGSSLLKEEEEDGQEGSIHNLPLVTSQRPFYDGPMPTPRQKPFQSGSTPLHLTHRFMVWNSIGIIRCYNDEQDNAIDVEFHDTSIHHATHLSNTLNYTIADLSHEAILLACESTDELASKLHCLHFSSWDSSKEWIIDLPQNEDIEAICLGQGWAAAATSALLLRLFTIGGVQKEVFSLAGPVVSMAGHGEQLFIVYHRGTGFDGDQCLGVQLLELGKKKKQILHGDPLPLTRKSYLAWIGFSAEGTPCYVDSEGIVRMLNRGLGNTWTPICNTREHCKGKSDHYWVVGIHENPQQLRCIPCKGSRFPPTLPRPAVAILSFKLPYCQIATEKGQMEEQFWRSVIFHNHLDYLAKNGYEYEESTKNQATKEQQELLMKMLALSCKLEREFRCVELADLMTQNAVNLAIKYASRSRKLILAQKLSELAVEKAAELTATQVEEEEEEEDFRKKLNAGYSNTATEWSQPRFRNQVEEDAEDSGEADDEEKPEIHKPGQNSFSKSTNSSDVSAKSGAVTFSSQGRVNPFKVSASSKEPAMSMNSARSTNILDNMGKSSKKSTALSRTTNNEKSPIIKPLIPKPKPKQASAASYFQKRNSQTNKTEEVKEENLKNVLSETPAICPPQNTENQRPKTGFQMWLEENRSNILSDNPDFSDEADIIKEGMIRFRVLSTEERKVWANKAKGETASEGTEAKKRKRVVDESDETENQEEKAKENLNLSKKQKPLDFSTNQKLSAFAFKQE
B2: untagged DDX11 (protein, UniProt Q96FC9 1-970)
chain: MANETQKVGAIHFPFPFTPYSIQEDFMAELYRVLEAGKIGIFESPTGTGKSLSLICGALSWLRDFEQKKREEEARLLETGTGPLHDEKDESLCLSSSCEGAAGTPRPAGEPAWVTQFVQKKEERDLVDRLKAEQARRKQREERLQQLQHRVQLKYAAKRLRQEEEERENLLRLSREMLETGPEAERLEQLESGEEELVLAEYESDEEKKVASRVDEDEDDLEEEHITKIYYCSRTHSQLAQFVHEVKKSPFGKDVRLVSLGSRQNLCVNEDVKSLGSVQLINDRCVDMQRSRHEKKKGAEEEKPKRRRQEKQAACPFYNHEQMGLLRDEALAEVKDMEQLLALGKEARACPYYGSRLAIPAAQLVVLPYQMLLHAATRQAAGIRLQDQVVIIDEAHNLIDTITGMHSVEVSGSQLCQAHSQLLQYVERYGKRLKAKNLMYLKQILYLLEKFVAVLGGNIKQNPNTQSLSQTGTELKTINDFLFQSQIDNINLFKVQRYCEKSMISRKLFGFTERYGAVFSSREQPKLAGFQQFLQSLQPRTTEALAAPADESQASTLRPASPLMHIQGFLAALTTANQDGRVILSRQGSLSQSTLKFLLLNPAVHFAQVVKECRAVVIAGGTMQPVSDFRQQLLACAGVEAERVVEFSCGHVIPPDNILPLVICSGISNQPLEFTFQKRELPQMMDEVGRILCNLCGVVPGGVVCFFPSYEYLRQVHAHWEKGGLLGRLAARKKIFQEPKSAHQVEQVLLAYSRCIQACGQERGQVTGALLLSVVGGKMSEGINFSDNLGRCVVMVGMPFPNIRSAELQEKMAYLDQTLSPRPGTPREGSGGEPVHEGRQPVHRQGHQAPEGFCQRSAPGPAICPAPCPGQAAGLDPSPCGGQSYLWPRHCCCAEVSPGEVGLFLMGNHTTAWRRALPLSCPLETVFVVGVVCGDPVTKVKPRRRVWSPECCQDPGTGVSSRRRKWGNPE

Experiments:
Test in all cases: co-IP; Flag-tagged protein captured overnight on ANTI-FLAG M2 Affinity beads from 293T whole cell lysates (150 mM NaCl, 0.1% NP-40, treated with benzonase); beads washed three times with lysis buffer; Western blot
[1] = biological target: T1, Flag-tagged DDX11 (wild type) (human)
[2] = biological target: T2, Flag-tagged WDHD1 (human)
Flag-tagged POLD1 = Flag-tagged POLD1 (UniProt P28340)

Row | Molecule | binding [1] | binding [2] | binding (Flag-tagged POLD1)
1 | POLD1 (endogenous), the catalytic subunit of Pol δ (from UniProt P28340 1-1107) | binds | – | –
2 | B1 | binds | – | –
3 | B2 | – | binds | binds
